# Structures were worked out from names or drawings and are uncertain.
# Chains of the proteins cited; added tags and fusions are not shown. Residues count along the entry.
# UniProt P05979, 25-600 limits assumed: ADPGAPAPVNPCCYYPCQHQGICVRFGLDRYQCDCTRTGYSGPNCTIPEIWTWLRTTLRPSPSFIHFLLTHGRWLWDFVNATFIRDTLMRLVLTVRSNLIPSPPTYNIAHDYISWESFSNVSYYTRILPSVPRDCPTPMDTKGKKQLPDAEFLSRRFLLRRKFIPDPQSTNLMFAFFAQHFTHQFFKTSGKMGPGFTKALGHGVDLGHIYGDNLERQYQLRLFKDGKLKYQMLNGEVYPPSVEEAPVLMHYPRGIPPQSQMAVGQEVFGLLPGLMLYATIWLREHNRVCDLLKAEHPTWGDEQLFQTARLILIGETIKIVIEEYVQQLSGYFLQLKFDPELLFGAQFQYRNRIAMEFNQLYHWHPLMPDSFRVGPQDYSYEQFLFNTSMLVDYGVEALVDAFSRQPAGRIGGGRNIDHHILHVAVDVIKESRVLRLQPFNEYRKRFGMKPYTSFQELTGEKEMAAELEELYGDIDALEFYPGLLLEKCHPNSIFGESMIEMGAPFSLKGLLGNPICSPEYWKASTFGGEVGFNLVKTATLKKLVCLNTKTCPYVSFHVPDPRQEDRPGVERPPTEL
# UniProt P35354, 18-604 limits assumed: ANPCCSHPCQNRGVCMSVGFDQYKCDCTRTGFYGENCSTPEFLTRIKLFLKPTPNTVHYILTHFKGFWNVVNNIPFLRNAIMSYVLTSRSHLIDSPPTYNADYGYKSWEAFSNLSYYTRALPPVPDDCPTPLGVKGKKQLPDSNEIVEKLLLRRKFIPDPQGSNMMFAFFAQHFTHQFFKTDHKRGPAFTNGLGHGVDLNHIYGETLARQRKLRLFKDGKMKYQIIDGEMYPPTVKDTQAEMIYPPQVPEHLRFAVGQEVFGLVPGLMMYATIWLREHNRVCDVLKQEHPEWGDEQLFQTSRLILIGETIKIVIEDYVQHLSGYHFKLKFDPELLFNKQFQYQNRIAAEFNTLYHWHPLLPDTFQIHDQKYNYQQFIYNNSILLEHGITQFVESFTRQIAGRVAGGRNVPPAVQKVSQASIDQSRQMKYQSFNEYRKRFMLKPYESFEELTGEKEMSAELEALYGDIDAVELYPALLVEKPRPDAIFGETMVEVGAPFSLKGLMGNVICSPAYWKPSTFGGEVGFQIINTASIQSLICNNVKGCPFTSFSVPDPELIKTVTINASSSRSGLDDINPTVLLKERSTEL
# Experiments:
# COX-1 = COX-1 (Ovis aries, UniProt P05979); experiment: COX-1 fluorometric inhibitor screening kit (BioVision); format: biochemical; conditions: for COX-1% Inhibition 1 μM: 1 μM compound; for COX-1% Inhibition 1 μM / COX-1% Inhibition 10 μM: mean ± SD, quadruplicate; for COX-1% Inhibition 10 μM: 10 μM compound; for IC50: read-out: COX-1 IC50, fluorometric kit
# COX-2 = COX-2 (Homo sapiens, UniProt P35354); experiment: COX-2 fluorometric inhibitor screening kit (BioVision); format: biochemical
compound,measurement,setting,value
CCOC(=O)c1cc(-c2ccc(Cl)c(Cl)c2)n(CC(=O)O)c1C,COX-1% Inhibition 1 μM,COX-1,46.378 ± 1.501%
same,COX-1% Inhibition 10 μM,COX-1,86.461 ± 1.716%
same,IC50,COX-1,> 1000 nM
CCOC(=O)c1cc(-c2cccc(Cl)c2)n(CC(=O)O)c1C,COX-2% Inhibition 1 μM,COX-2,82.602 ± 2.061%
same,COX-2% Inhibition 10 μM,COX-2,91.579 ± 2.458%
same,experimental activity on COX-2 (pIC50),COX-2,6.8446
same,IC50,COX-2; read-out: COX-2 IC50,143 nM
same,COX-1% Inhibition 1 μM,COX-1,34.587 ± 0.836%
same,COX-1% Inhibition 10 μM,COX-1,41.326 ± 1.057%
same,IC50,COX-1,> 10000 nM

# — paper PMC10753557, “Design and Evaluation of Synthesized Pyrrole Derivatives as Dual COX-1 and COX-2 Inhibitors Using FB-QSAR Approach” (ACS Omega, 2023)
